# Assay results as given in publication PMC7762753.
# These are yes or no findings as the source states them, for the method shown. Binding seen in cells or lysates may run through a third protein. Binding calls can cover weak binding; strength is not graded here.
# Biological target: T1, Kindlin-2 (endogenous, MC-4 osteoblastic cells) (mouse (endogenous in MC-4)) (UniProt Q8CIB5)
# T1 sequence: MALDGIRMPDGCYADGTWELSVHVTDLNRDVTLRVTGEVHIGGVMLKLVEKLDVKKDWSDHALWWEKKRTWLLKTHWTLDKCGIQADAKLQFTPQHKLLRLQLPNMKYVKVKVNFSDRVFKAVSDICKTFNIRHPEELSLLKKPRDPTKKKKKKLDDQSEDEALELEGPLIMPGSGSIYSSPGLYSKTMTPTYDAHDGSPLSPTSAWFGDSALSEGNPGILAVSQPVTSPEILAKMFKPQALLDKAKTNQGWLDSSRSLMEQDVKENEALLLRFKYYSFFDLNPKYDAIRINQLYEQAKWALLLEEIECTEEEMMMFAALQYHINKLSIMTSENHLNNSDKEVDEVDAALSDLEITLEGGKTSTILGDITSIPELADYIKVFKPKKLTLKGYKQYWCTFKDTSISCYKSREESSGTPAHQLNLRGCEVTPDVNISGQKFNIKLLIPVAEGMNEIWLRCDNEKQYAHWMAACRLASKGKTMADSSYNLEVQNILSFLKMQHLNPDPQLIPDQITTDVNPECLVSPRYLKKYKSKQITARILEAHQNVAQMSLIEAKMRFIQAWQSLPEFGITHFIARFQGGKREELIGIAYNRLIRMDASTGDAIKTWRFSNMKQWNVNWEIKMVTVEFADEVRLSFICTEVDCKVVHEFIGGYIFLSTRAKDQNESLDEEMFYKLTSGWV
# Test: co-IP; endogenous proteins; whole-cell extracts of MC-4 cells incubated with Kindlin-2 antibody or IgG, Protein A/G magnetic beads, western blotting; IP lysis buffer pH 7.4, 0.025 M Tris, 0.15 M NaCl, 0.001 M EDTA, 1% NP-40, 5% glycerol
row,binding,Substance
1,binds,"type 1 parathyroid hormone receptor (endogenous, MC-4 osteoblastic cells) (mouse (endogenous in MC-4))"

# Biological target: T2, full-length Kindlin-2 (expression plasmid, COS-7 cells) (UniProt Q8CIB5)
# T2 sequence: T1 sequence
# Test: co-IP; COS-7 cells co-transfected with Flag-tagged PTH1R cytoplasmic constructs and full-length Kindlin-2; extracts precipitated with Kindlin-2 antibody, blot with Flag and Kindlin-2 antibodies; IP lysis buffer pH 7.4, 0.15 M NaCl, 1% NP-40
row,binding,Substance
1,binds,Flag-tagged PTH1R cytoplasmic domain aa 1-68 (mouse) (domain or fragment)
2,binds,Flag-tagged PTH1R cytoplasmic domain aa 1-88 (mouse) (domain or fragment)
3,binds,Flag-tagged PTH1R cytoplasmic domain aa 1-108 (mouse) (domain or fragment)
4,no binding,Flag-tagged PTH1R cytoplasmic domain aa 1-108 with internal deletion of aa 9-18 (mouse) (domain or fragment)
5,no binding,"Flag-tagged PTH1R cytoplasmic domain aa 1-108, mutation #3 (Trp474 to Lys474) (mouse) (domain or fragment)"
